The results in this text go back to patent US20050175608A1 (Kyowa Kirin, published 2005).

Results are given in words; binding and its absence hold for the method and conditions named. Some binding calls cover weakened binding; strength is not graded here.

The experiment has as its target T1, human FGF-8 (human) (UniProt P55075).
T1 sequence (looked up): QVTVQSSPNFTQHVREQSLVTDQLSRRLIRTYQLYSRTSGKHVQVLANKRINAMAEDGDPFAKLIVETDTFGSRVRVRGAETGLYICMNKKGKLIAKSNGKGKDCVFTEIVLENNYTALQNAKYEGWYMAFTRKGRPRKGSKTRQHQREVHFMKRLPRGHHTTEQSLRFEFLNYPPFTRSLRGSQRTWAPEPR
The experiment in a line: tissue immunostaining of paraffin sections of human rheumatoid arthritis synovial membrane.

B1: anti-FGF-8 neutralizing mouse antibody KM1334 (antibody, mouse IgG1, V domains shown)
VH: QVQLQQSGAEVARPGASVKLSCKASGYTFTDYYLNWVKQRSGQGLEWIGEIDPGSDSIYYNENLEGRATLTADKSSSTAYMQLNSLTSEDSAVYFCARYGYSRYDVRFVYWGQGTLVTVST
VL: DVLMTQTPLSLPVSLGDQASISCRSSQSLVHSNGRTYLEWYLQKPGQSPKVLIYKVSNRISGVPDRFSGSGSGTDFTLKISRVEAEDLGVYFCFQGSHVPYTFGGGTKLEIK
Take B1: the binding entry is “binds”.
